# Data taken from PubChem BioAssay AID504834 (National Center for Advancing Translational Sciences (NCATS), 2011).
# Hit rate of the full screen: of about 320,000 compounds, about 22,000 (6.9%) were called active. Inconclusive means that the source gave no clear call. Such entries were picked first, then a sample of the others. Calls follow the shape of the dose curve; as a rule, active = well fitted inhibition curve with a large enough effect; inconclusive = small, poorly fitted or top-dose-only effect, or another doubt; inactive = no such curve, though single readings can be large or run the other way. Potencies beside an inconclusive call are fits to weak or partial responses and may not hold up.
# Assay: Primary qHTS for delayed death inhibitors of the malarial parasite plastid, 96 hour incubation
# Conditions: P. falciparum luciferase reporter growth; series mostly up to 28.7 µM; activity change, negative = inhibition: at the top concentration
# Procedure, shortened: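 96 h incubation, 37 C, 5% CO2, of luciferase-reporter P. falciparum-infected RBCs (2% hematocrit, 0.05% parasitemia final) with test compounds; endpoint luminescence.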
# % is scaled to controls: 0 for no effect and ±100 for the full control effect; potency is read from the fitted curve at half-maximal effect.
SMILES,Potency,"activity change, negative = inhibition"
CC(C)CNC(=O)COc1ccc2c3c(c(=O)oc2c1)CCC3,"inconclusive: 18.5 µM [inhibitor, single point]",–
Cn1cnnc1SC(C(=O)Nc1ccc(F)cc1)c1ccccc1 (stereo not given),"inconclusive: 20.8 µM [inhibitor, partial curve, poor fit]",–
COc1ccc(CCNC(=S)Nc2cc(C)ccc2C)cc1,"inconclusive: 9.28 µM [inhibitor, partial curve, poor fit]",–
O=C(OCc1ccc(Cl)cc1Cl)c1cccnc1Cl,–,inactive: 70.1%
Cc1n[nH]c(=O)n1-c1ccc(OC(F)(F)F)cc1,–,inactive: 71.7%
CCOc1ccc(C(C)=O)cc1Cn1c(=O)oc2ccccc21,–,inactive: -2.74%
COc1ccc(OC)c(NC(=O)c2cc3ccccc3cc2OC)c1,"inconclusive: 18.5 µM [inhibitor, single point]",–
CC1=CCC2C(=O)N(c3cc(C)on3)C(=O)C2C1 (stereo not given),"inconclusive: 18.5 µM [inhibitor, single point]",–
CCOc1ccc(NC(=O)CN(C)C(=O)c2cn(-c3ccc(F)cc3)nc2-c2cccc(OC)c2)cc1OCC,"inconclusive: 10.4 µM [inhibitor, partial curve]",–
CC1CCN(C(=O)c2[nH]cnc2C(=O)N[C@@H](C)C(=O)OCc2ccccc2)CC1,–,inactive: 25.5%
CC(=O)Nc1ccccc1C(=O)OCC(=O)c1ccc2c(c1)OCCO2,–,inactive: 39.3%
CC(C)C[C@H](NC(=O)N1c2ccccc2NC(=O)[C@@H]1C(C)C)C(=O)N[C@@H](Cc1ccccc1)C(=O)O,"inconclusive: 2.94 µM [inhibitor, full curve]",–
Cc1cc(C)c(C)c(S(=O)(=O)N2CCC(C(=O)Nc3ccccc3N3CCOCC3)CC2)c1C,"inconclusive: 1.31 µM [inhibitor, full curve]",–
COCCn1c(SCc2ccc(F)cc2)nc2ccccc2c1=O,"inconclusive: 10.4 µM [inhibitor, single point]",–
O=C(Nc1nnc(S(=O)(=O)N2CCCC2)s1)c1ccccc1Cl,"inconclusive: 4.15 µM [inhibitor, single point]",–
O=[N+]([O-])c1ccc(C2CCCC/C2=N/OCc2ccccc2F)c([N+](=O)[O-])c1 (stereo not given),"inconclusive: 10.4 µM [inhibitor, single point]",–
CCCCCc1ccc(-c2ccc(OCC)cc2)nc1,"inconclusive: 8.28 µM [inhibitor, partial curve, poor fit]",–
COc1ccc(Br)cc1C(=O)Nc1ccc(NC(=O)c2ccco2)cc1,–,inactive: 42.3%
Cn1c(SCC(=O)c2ccc(F)cc2)nnc1-c1cccnc1,"inconclusive: 0.37 µM [inhibitor, partial curve, poor fit]",–
CCCNC(=O)N[C@@H](Cc1ccccc1)C(=O)OC,"inconclusive: 18.5 µM [inhibitor, single point]",–
COCCn1nnnc1C(c1ccc2ncccc2c1)N1CCN(c2ccccc2F)CC1 (stereo not given),"inconclusive: 10.4 µM [inhibitor, single point]",–
O=C(CCN1C(=O)/C(=C/c2ccco2)SC1=S)Nc1ccc(C(=O)O)c(O)c1,–,inactive: 31.8%
Cc1ccccc1NC(=S)NC1CC2CCC(C1)N2Cc1ccco1 (stereo not given),"inconclusive: 10.4 µM [inhibitor, single point]",–

SMILES,Potency,"activity change, negative = inhibition"
COc1cc(-c2nc3ccccn3c2/N=C/c2ccccc2)ccc1O,–,inactive: -15.3%
O=C(Nc1cccnc1)Nc1cc(Cl)cc(Cl)c1,"inconclusive: 0.522 µM [inhibitor, full curve, poor fit]",–
CC(=O)c1ccc(N2CCN(CC(=O)N(CC(C)C)c3c(N)n(CC(C)C)c(=O)[nH]c3=O)CC2)cc1,–,inactive: -18.4%
Cc1nc(N2CCN(S(=O)(=O)c3ccc(Br)cc3)CC2)c2c(C)c(C)sc2n1,–,inactive: -10%
FC(F)(F)c1ccccc1CN1CCC(Cc2ccccc2)CC1,"inconclusive: 7.38 µM [inhibitor, partial curve]",–
CC(C)(C)OC(=O)N/N=C/c1cc(N=Nc2ccccc2)ccc1O,"inconclusive: 18.5 µM [inhibitor, single point]",–
Cc1ccccc1NC(=O)c1ccccc1NC(=O)c1ccccc1F,"inconclusive: 10.4 µM [inhibitor, partial curve]",–
CCOc1ccc(-c2nnn(CC(=O)c3ccc4c(c3)OCCO4)n2)cc1,"inconclusive: 9.28 µM [inhibitor, single point]",–
CC[n+]1c(C)cc2c(sc3ccccc32)c1C,"inconclusive: 0.522 µM [inhibitor, partial curve]",–
COc1cccc(-n2cnc3sc(C)c(C)c3c2=O)c1,–,inactive: 32.7%
CCOc1ccc(C(=O)NC2=NCCS2)cc1,–,inactive: 139%
CCC(=O)N1C(C(=O)NCc2ccc(OC)cc2)CSC1c1ccc(OC)cc1 (stereo not given),"inconclusive: 18.5 µM [inhibitor, single point]",–
Cc1ccc2cc3cc(C(=O)NCCN4CCOCC4)oc3nc2c1,"inconclusive: 18.5 µM [inhibitor, single point]",–
CCc1nc(N)c(C#N)c(-c2cccc3ccccc23)c1C,"inconclusive: 18.5 µM [inhibitor, single point]",–
Cc1ccc(NC(=O)CN(C)S(=O)(=O)c2cccc3cccnc23)cc1C,active: 13.1 µM,–
COc1cc(/C=N/N2CCN(C3c4ccccc4-c4ccccc43)CC2)ccc1O,"inconclusive: 10.4 µM [inhibitor, single point]",–
O=C(CSCc1cc(=O)n2nc(C3CC3)sc2n1)Nc1ccc(F)cc1,"inconclusive: 18.5 µM [inhibitor, single point]",–
CCOC(=O)c1ccc(NC(=O)CCc2nc(-c3ccc(Cl)cc3)no2)cc1,"inconclusive: 10.4 µM [inhibitor, partial curve, poor fit]",–
CN1CCN(CCCNCc2cn(CCC#N)c3ccccc23)CC1,–,inactive: 9.1%
CNC(=S)N/N=C(\C)c1ccc(C(C)(C)C)cc1,"inconclusive: 14.7 µM [inhibitor, single point]",–
Cc1ccc(CN2CCC(NC(=O)c3ccccc3)CC2)cc1,–,inactive: 24.1%
Cc1cc(=O)[nH]c(N/N=C/c2ccc(Cl)cc2Cl)n1,"inconclusive: 14.7 µM [inhibitor, single point]",–

# One compound at a time (already shown). Order of values: Potency | activity change, negative = inhibition
# Cc1cc(C)c(C)c(S(=O)(=O)N2CCC(C(=O)Nc3ccccc3N3CCOCC3)CC2)c1C reads inconclusive: 1.31 µM [inhibitor, full curve] | –
# Cn1c(SCC(=O)c2ccc(F)cc2)nnc1-c1cccnc1 reads inconclusive: 0.37 µM [inhibitor, partial curve, poor fit] | –
# CCOc1ccc(NC(=O)CN(C)C(=O)c2cn(-c3ccc(F)cc3)nc2-c2cccc(OC)c2)cc1OCC reads inconclusive: 10.4 µM [inhibitor, partial curve] | –
